Assay results taken from US20140179624A1, “CYTOPROTECTIVE DERIVATIVES OF AVICIN D AND METHODS OF MAKING AND USING THEREOF” (Research Development Foundation, priority 2012, published 2014).
At least one structure is not confirmed: it was looked up by name or label, or the drawing left a doubt.

Test system: NF-κB
Assay: TNF-induced p(IL6-κB)350hu.IL6P-Luc luciferase reporter in HEK 293T cells with and without GR (FIG. 3)
Format: cell-based
Excerpt: FIG. 3 is graph showing the expression of glucocorticoid receptor (GR) in HEK293T cells with and without GR.
However, TNF-induced activation of p(IL6-κB)350hu.IL6P-Luc was inhibited by both avicin D and Dex in HEK 293T cells transfected with GR (FIG. 3). […] This observation supports the notion that avicins are not able to induce GR transactivation.

With C[C@@H]1C[C@H]2[C@@H]3CCC4=CC(=O)C=C[C@]4(C)[C@@]3(F)[C@@H](O)C[C@]2(C)[C@@]1(O)C(=O)CO [dexamethasone] the “TNF-induced activation of p(IL6-κB)350hu.IL6P-Luc” value (HEK 293T cells transfected with GR) was “inhibited” and the luciferase activity (wild type HEK 293T cells (without GR)) was “neither avicin D nor dexamethasone had an effect”.
